# Assay results taken from the supplement of paper PMC11637464.
# Structures can show the parent of a compound that is named as a salt. The list shows a part of the results. Most values come without repeats; read them as rough.
# Test system: primary mouse Muller glia with Ascl1 overexpression
# Assay: Neuronal cell count fold change vs Ascl1-only control (log2 fold change); higher = more neurogenesis
# Method: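 Primary P11 mouse Muller glia carrying dox-inducible Ascl1 were treated with Tocriscreen Stem Cell Library compounds at 0.1, 1 or 10 uM together with doxycycline for 5 days, then profiled by sci-Plex hashing and sci-RNA-seq2. Cells were annotated by marker genes and cell-type counts per well were size-factor adjusted. Read-outs are the log2 fold change of Neuronal (NeuPre + bipolar) and ProL cell counts versus the Ascl1-only control wells of the same collection day, plus the raw number of recovered cells per well. There is one well per dose, and wells with fewer than 20 cells were discarded.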
SMILES,Neuronal cell count fold change (0.1 µM),Neuronal cell count fold change (1 µM),Neuronal cell count fold change (10 µM)
OCCNC1CCCc2c1[nH]c1ccc(-c3ccccc3)cc21 (stereo not given) (collection day: 2),-0.115,0.206,–
O=C(O)c1ccc2cc(-c3ccc(O)c(C45CC6CC(CC(C6)C4)C5)c3)ccc2c1 (collection day: 1),-0.252,–,–
CC(NC(=O)C(OC(=O)C(C)NC(=O)OC(C)(C)C)C(C)C)C(=O)OC(C(=O)O)C(C)C (stereo not given) (collection day: 2),-0.7,0.3,0.387
CCc1ccc(CCOc2ccc(CC3SC(=O)NC3=O)cc2)nc1 (stereo not given) [Pioglitazone hydrochloride] (collection day: 2),0,0,-2.7
CC1(C)CCC(C)(C)c2cc(C(=O)Nc3ccc(C(=O)O)cc3)ccc21 (collection day: 1),-1.32,-0.252,–
NCCNS(=O)(=O)c1ccc(Cl)c2ccncc12 [CKI 7 dihydrochloride] (collection day: 2),0.206,0.206,-0.115
c1ccc2c(-c3cnn4cc(-c5ccc(N6CCNCC6)cc5)cnc34)ccnc2c1 (collection day: 2),0.3,–,–
c1ccc2c(Oc3nc(Nc4ccc(N5CCOCC5)cc4)c4ncn(C5CCCCC5)c4n3)cccc2c1 [Purmorphamine] (collection day: 2),0.3,-0.241,-1.12
CC(=O)Nc1ccc(C(=O)Nc2ccccc2N)cc1 (collection day: 1),-0.644,-0.943,-4.64
CCCCCC[C@@H]([C@@H](C)O)n1cnc2c(N)ncnc21 [EHNA hydrochloride] (collection day: 1),0.0566,-0.322,–
CC1=C(C(=O)Nc2cc3cn[nH]c3cc2F)C(c2ccc(C(F)(F)F)cc2)CC(=O)N1 (stereo not given) (collection day: 2),0.206,0.107,0.107
"CCCC(=O)Nc1ncnc2c1ncn2[C@@H]1O[C@@H]2COP(=O)(O)O[C@H]2[C@H]1OC(=O)CCC [Dibutyryl-cAMP, sodium salt] (collection day: 1)",-0.184,–,-1.06
CN1CCC[C@@H]1CCO[C@](C)(c1ccccc1)c1ccc(Cl)cc1 [Clemastine fumarate] (collection day: 1),-0.943,-0.837,–
O=C1NC(=O)c2c1c(-c1ccccc1)cc1[nH]c3ccc(O)cc3c21 (collection day: 1),0.164,–,–
O=C(O)c1ccccc1C(=O)Nc1ccc(-c2ccccc2)cc1 [Kartogenin] (collection day: 2),0.387,-0.531,0
Cc1ccccc1NC(=O)Nc1ccc(CC(=O)N(C)[C@@H](CC(C)C)C(=O)NCC[C@H](NC(=O)[C@@H]2CCCN2S(=O)(=O)c2cc(Cl)cc(Cl)c2)C(=O)O)cc1 (collection day: 2),0.107,0.206,0.206
"Nc1ncnc2c1nc(Br)n2[C@@H]1O[C@@H]2COP(=O)(O)O[C@H]2[C@H]1O [8-Bromo-cAMP, sodium salt] (collection day: 1)",-0.474,-0.252,-0.737

# 2 compounds from above, showing only Neuronal cell count fold change (0.1 µM) and Neuronal cell count fold change (10 µM):
SMILES	Neuronal cell count fold change (0.1 µM)	Neuronal cell count fold change (10 µM)
CC(NC(=O)C(OC(=O)C(C)NC(=O)OC(C)(C)C)C(C)C)C(=O)OC(C(=O)O)C(C)C (stereo not given) (collection day: 2)	-0.7	0.387
CCc1ccc(CCOc2ccc(CC3SC(=O)NC3=O)cc2)nc1 (stereo not given) [Pioglitazone hydrochloride] (collection day: 2)	0	-2.7
